From article PMC12209172, “Poly(ADP-ribose)polymerase 2 is zinc-dependent enzyme and nucleosome reorganizer” (Cellular and Molecular Life Sciences: CMLS, 2025)
Where “and” joins values, the source holds several entries; their conditions need not be identical. Equal entries are not always repeated. The source gives many values for each of these; only a part stands here.

Protein sequences, listed by entry. Tags and fused reporters are not part of them. Residues count along the entry.
UniProt Q9UGN5, 77-220: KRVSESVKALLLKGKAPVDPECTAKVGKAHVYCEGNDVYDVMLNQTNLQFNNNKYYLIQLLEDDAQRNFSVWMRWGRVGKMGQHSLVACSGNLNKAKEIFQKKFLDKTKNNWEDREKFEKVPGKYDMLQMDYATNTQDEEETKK

Target: T1, WGR domain of PARP2 (Homo sapiens, UniProt Q9UGN5)
T1 construct: WGR domain of PARP2 (residues 77–220) into pET-15b-TEV expression vector; 6xHis (pET-15b-TEV) (N, cleaved yes); made in house; host or cells: Escherichia coli Rosetta2 (DE3) pLysS
Experiment: Tryptophan fluorescence spectroscopy of the WGR domain titrated with divalent cations (one site binding fit)
Details: listed as Zn
Protocol: Fluorescence spectra of Trp residues were measured in the 300–450 nm spectral range at the 270 nm excitation wavelengths using the Cary Eclipse spectrofluorometer (Varian/Agilent, USA).
Fluorescence of WGR domain was measured at 0.5 or 5 µM in a buffer containing 10 mM HEPES (pH 8.0), 150 mM NaCl and 0.73 or 7.3 µM EDTA, respectively. Solutions were complemented with ZnCl2 (0.2–308 µM) or MgCl2 (15–5000 µM), or CaCl2 (8–5000 µM) dissolved in a buffer containing 10 mM HEPES (pH 8.0), 150 mM NaCl. Intensity of the measured spectra was corrected for the concomitant dilution of the WGR domain. Integral intensities (Ifl.) of fluorescence spectra were averaged over three independent measurements (mean ± SEM) and used to plot the corresponding Ifl. vs. ion concentration graphs. Data were fitted with the one site binding equation:2 [drawing 2]
Where C is the concentration of divalent cations, Kd is a dissociation constant of the complex, Im and Ifl0 are maximal and initial values of Ifl., respectively.

## [Cl-].[Cl-].[Zn+2] [Zn2+, ZnCl2]
Wavelength 334.000, 5.9 uM Zn
  fluorescence intensity (Fig 3d): 94.488 and 73.764
Wavelength 334.000, 11.6 uM Zn
  fluorescence intensity (Fig 3d): 109.935 and 117.803
Wavelength 334.000, 17.2 uM
  fluorescence intensity (Fig 3d): 134.079 and 123.008 and 122.422 and 122.634
Wavelength 334.000, 22.1 uM
  fluorescence intensity (Fig 3d): 135.200 and 123.612 and 122.696 and 125.126
Wavelength 334.000, 303 uM + 7 mM EDTA
  fluorescence intensity (Fig 3d): 43.844 and 55.461 and 44.966 and 53.995
Wavelength 334.000, 308 uM
  fluorescence intensity (Fig 3d): 134.538 and 127.976 and 128.402 and 125.627
Wavelength 335.070, 5.9 uM Zn
  fluorescence intensity (Fig 3d): 69.080 and 76.945 and 96.741 and 75.080
Wavelength 335.070, 11.6 uM Zn
  fluorescence intensity (Fig 3d): 129.118 and 113.063 and 111.602 and 121.027
Wavelength 335.070, 17.2 uM
  fluorescence intensity (Fig 3d): 136.142 and 124.910 and 124.725 and 124.997
Wavelength 335.070, 22.1 uM
  fluorescence intensity (Fig 3d): 136.511 and 125.568 and 125.541 and 127.902
Wavelength 335.070, 303 uM + 7 mM EDTA
  fluorescence intensity (Fig 3d): 46.022 and 57.093 and 45.868 and 55.571
Wavelength 335.070, 308 uM
  fluorescence intensity (Fig 3d): 137.704 and 129.863 and 131.367 and 126.743
Wavelength 336.000, 5.9 uM Zn
  fluorescence intensity (Fig 3d): 70.553 and 79.727 and 96.509 and 76.253
Wavelength 336.000, 11.6 uM Zn
  fluorescence intensity (Fig 3d): 131.661 and 113.885 and 111.911 and 121.119
Wavelength 336.000, 17.2 uM
  fluorescence intensity (Fig 3d): 136.561 and 125.518 and 124.266 and 126.632
Wavelength 336.000, 22.1 uM
  fluorescence intensity (Fig 3d): 140.338 and 126.796 and 126.438 and 127.620
Wavelength 336.000, 303 uM + 7 mM EDTA
  fluorescence intensity (Fig 3d): 45.349 and 57.999 and 45.954 and 55.775
Wavelength 336.000, 308 uM
  fluorescence intensity (Fig 3d): 138.633 and 131.173 and 132.078 and 128.494
Wavelength 337.070, 5.9 uM Zn
  fluorescence intensity (Fig 3d): 70.332 and 80.463 and 97.306 and 76.822
Wavelength 337.070, 11.6 uM Zn
  fluorescence intensity (Fig 3d): 132.064 and 114.038 and 114.177 and 121.740
Wavelength 337.070, 17.2 uM
  fluorescence intensity (Fig 3d): 137.466 and 128.298 and 126.711 and 127.378
Wavelength 337.070, 22.1 uM
  fluorescence intensity (Fig 3d): 140.783 and 129.260 and 126.618 and 130.381
Wavelength 337.070, 303 uM + 7 mM EDTA
  fluorescence intensity (Fig 3d): 46.338 and 58.051 and 46.464 and 55.465
Wavelength 337.070, 308 uM
  fluorescence intensity (Fig 3d): 140.043 and 132.716 and 132.877 and 130.646
Wavelength 338.000, 5.9 uM Zn
  fluorescence intensity (Fig 3d): 70.215 and 81.093 and 98.543 and 77.316
Wavelength 338.000, 11.6 uM Zn
  fluorescence intensity (Fig 3d): 133.027 and 114.574 and 115.179 and 121.328
Wavelength 338.000, 17.2 uM
  fluorescence intensity (Fig 3d): 139.057 and 129.492 and 127.870 and 128.253
Wavelength 338.000, 22.1 uM
  fluorescence intensity (Fig 3d): 140.716 and 130.013 and 129.129 and 129.993
Wavelength 338.000, 303 uM + 7 mM EDTA
  fluorescence intensity (Fig 3d): 46.240 and 59.124 and 46.350 and 56.772
Wavelength 338.000, 308 uM
  fluorescence intensity (Fig 3d): 141.862 and 133.810 and 134.608 and 132.122
Wavelength 339.070, 5.9 uM Zn
  fluorescence intensity (Fig 3d): 71.542 and 81.696 and 99.306 and 78.682
Wavelength 339.070, 11.6 uM Zn
  fluorescence intensity (Fig 3d): 134.648 and 118.309 and 115.508 and 124.091
Wavelength 339.070, 17.2 uM
  fluorescence intensity (Fig 3d): 142.597 and 131.085 and 130.459 and 129.417
Wavelength 339.070, 22.1 uM
  fluorescence intensity (Fig 3d): 143.025 and 129.585 and 130.088 and 130.347
Wavelength 339.070, 303 uM + 7 mM EDTA
  fluorescence intensity (Fig 3d): 47.012 and 58.655 and 46.670 and 56.771
Wavelength 339.070, 308 uM
  fluorescence intensity (Fig 3d): 142.704 and 134.158 and 134.193 and 132.767
Wavelength 340.000, 5.9 uM Zn
  fluorescence intensity (Fig 3d): 71.672 and 81.923 and 100.308 and 79.259
Wavelength 340.000, 11.6 uM Zn
  fluorescence intensity (Fig 3d): 136.816 and 118.636 and 117.007 and 124.343
Wavelength 340.000, 17.2 uM
  fluorescence intensity (Fig 3d): 142.351 and 129.822 and 131.297 and 132.482
Wavelength 340.000, 22.1 uM
  fluorescence intensity (Fig 3d): 143.333 and 131.532 and 132.262 and 133.263
Wavelength 340.000, 303 uM + 7 mM EDTA
  fluorescence intensity (Fig 3d): 46.086 and 59.753 and 46.692 and 55.673
Wavelength 340.000, 308 uM
  fluorescence intensity (Fig 3d): 145.226 and 135.383 and 137.028 and 132.022
Wavelength 340.930, 5.9 uM Zn
  fluorescence intensity (Fig 3d): 71.827 and 81.617 and 100.536 and 78.967
Wavelength 340.930, 11.6 uM Zn
  fluorescence intensity (Fig 3d): 135.528 and 118.618 and 117.590 and 125.195
Wavelength 340.930, 17.2 uM
  fluorescence intensity (Fig 3d): 142.672 and 131.886 and 132.190 and 130.893
Wavelength 340.930, 22.1 uM
  fluorescence intensity (Fig 3d): 144.364 and 131.545 and 131.644 and 132.564
Wavelength 340.930, 303 uM + 7 mM EDTA
  fluorescence intensity (Fig 3d): 47.101 and 59.078 and 46.654 and 57.361
Wavelength 340.930, 308 uM
  fluorescence intensity (Fig 3d): 143.608 and 134.999 and 137.628 and 134.520
Wavelength 342.030, 5.9 uM Zn
  fluorescence intensity (Fig 3d): 72.290 and 81.405 and 101.269 and 78.832
Wavelength 342.030, 11.6 uM Zn
  fluorescence intensity (Fig 3d): 137.188 and 118.837 and 118.873 and 125.912
Wavelength 342.030, 17.2 uM
  fluorescence intensity (Fig 3d): 143.520 and 132.109 and 132.502 and 130.655
Wavelength 342.030, 22.1 uM
  fluorescence intensity (Fig 3d): 144.909 and 131.592 and 130.570 and 133.637
Wavelength 342.030, 303 uM + 7 mM EDTA
  fluorescence intensity (Fig 3d): 46.733 and 59.088 and 47.233 and 57.354
Wavelength 342.030, 308 uM
  fluorescence intensity (Fig 3d): 143.859 and 136.976 and 137.205 and 134.454
Wavelength 342.960, 5.9 uM Zn
  fluorescence intensity (Fig 3d): 72.722 and 83.358 and 100.342 and 79.244
Wavelength 342.960, 11.6 uM Zn
  fluorescence intensity (Fig 3d): 137.558 and 119.232 and 118.395 and 124.642
Wavelength 342.960, 17.2 uM
  fluorescence intensity (Fig 3d): 142.641 and 132.405 and 133.280 and 132.456
Wavelength 342.960, 22.1 uM
  fluorescence intensity (Fig 3d): 144.070 and 131.977 and 133.694 and 132.885
Wavelength 342.960, 303 uM + 7 mM EDTA
  fluorescence intensity (Fig 3d): 46.538 and 60.348 and 46.909 and 57.500
Wavelength 342.960, 308 uM
  fluorescence intensity (Fig 3d): 144.227 and 135.260 and 137.031 and 133.787
